The record followed here is PubChem BioAssay AID192 (DTP/NCI, 2004).

The test relates to BDF1 mice, B16 melanoma ip, median survival T/C. Nature of the test: NCI In Vivo Anticancer Drug Screen. Data for tumor model B16 Melanoma (intraperitoneal) in B6D2F1 (BDF1) mice. The settings on record: T/C endpoint: median survival time, higher T/C = longer survival. The essentials: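 Transplantable tumor model; survival or tumor size measured; reported as T/C, treated over vehicle control.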

The list is a part of this screen's results and no random one: it is rich in T/C values a quarter to a half above the control, in often repeated tests (any T/C) and in doses without a T/C. Other doses and runs of a compound stand elsewhere. T/C is the treated group as % of the vehicle group. Some entries give survivors of the animals treated and no T/C: the source files T/C as zero there, which appears to mark a toxic dose or a test without result, not a measured value. Some survivor counts are full or nearly so, which does not show that the dose was tolerated: survival well below the control is almost never listed, so the zero probably covers shortened survival too. Survivors were counted at the toxicity check, usually on the fifth day, unless a day is given; later deaths do not show. Schedule codes are those of the source, read here as Q, the interval in days (D) or hours (H), X, the number of doses. Brackets with × count equal records among those shown. Some doses were run more than once; the values are given in rising order. Where survival is the endpoint, this PubChem deposit counts one and a half times the control or more as active, and values a quarter to a half above the control carry no call in these data; other NCI protocols may use other cut-offs. Some T/C values are followed by the survivors on the day toxicity was checked, most often the fifth; without a count, all were alive then. Numbered stars: 1 amine (or outer) side, 2 acyl side, 3 side chain; on linkers, the order of the positions; unused ones are H or OH. Bridge positions count the residues as written; N and C are the ends. Square brackets hold non-standard residues; d marks the D form. Peptide text beside a SMILES is read from it. I, II: the chains in the order shown. Actinocin(1to9) = Cc1c2oc3c(C)ccc(C(=O)[*:2])c3nc-2c(C(=O)[*:1])c(N)c1=O; X1 = O=C1CC(C(=O)[*:2])N([*:1])C1; NMeV = CN[CH](C(=O)O)C(C)C; Sar = CNCC(=O)O

As for `Cc1c2oc3c(C)ccc(C(=O)NC4C(=O)NC(C(C)C)C(=O)N5CCCC5C(=O)N(C)CC(=O)N(C)C(C(C)C)C(=O)OC4C)c3nc-2c(C(=O)NC2C(=O)NC(C(C)C)C(=O)N3CC(=O)CC3C(=O)N(C)CC(=O)N(C)C(C(C)C)C(=O)OC2C)c(N)c1=O` (centres undefined) (I: TV[X1][Sar][NMeV] / II: TVP[Sar][NMeV]; ester I:1-I:C, II:1-II:C; linker I:N-II:N via Actinocin(1to9); configuration not given here), the T/C runs as follows: (dose: 3.1 micrograms/kg/injection, schedule: Q01DX009 (ip), vehicle: water) 126 % of control; (dose: 12.5 micrograms/kg/injection, schedule: Q01DX009 (ip), vehicle: water) 136 % of control; (dose: 37.5 micrograms/kg/injection, schedule: Q04DX003 (ip), vehicle: water) 126 % of control. Besides, the survivor count was 9 of 9 (dose: 25.0 micrograms/kg/injection, schedule: Q01DX009 (ip), vehicle: water); 9 of 10 (dose: 50.0 micrograms/kg/injection, schedule: Q01DX009 (ip), vehicle: water); 10 of 10 (dose: 75.0 micrograms/kg/injection, schedule: Q04DX003 (ip), vehicle: water); 2 of 10 (dose: 150.0 micrograms/kg/injection, schedule: Q04DX003 (ip), vehicle: water); 3 of 10 (dose: 200.0 micrograms/kg/injection, schedule: Q01DX001 (ip), vehicle: water); 1 of 10 (dose: 400.0 micrograms/kg/injection, schedule: Q01DX001 (ip), vehicle: water).

For the compound `CN(C)CCN1C(=O)CC(c2ccccc2)Sc2ccccc21` (centres undefined), under “dose: 50.0 mg/kg/injection, schedule: Q01DX009 (ip), vehicle: saline”, the survivor count is listed as 10 of 10.

As for `COc1cccnc1/C=N/NC(N)=S`, for the setting “dose: 24.0 mg/kg/injection, schedule: Q01DX009 (ip), vehicle: saline with Tween-80”, the survivor count is given as 0 of 10.

For the compound `CC[C@](C)(O)C(=O)O[C@H]1C(=O)O[C@@H]2C[C@H]3C(C)=CC(=O)[C@@H](O)[C@]3(C)[C@H]3[C@@]4(O)OC[C@]32[C@@H]1[C@@H](C)[C@H]4O`, the T/C by setting is: (dose: 0.12 mg/kg/injection, schedule: Q01DX009 (ip), vehicle: saline) 130 and 143 % of control; (dose: 0.25 mg/kg/injection, schedule: Q01DX009 (ip), vehicle: saline) 136 % of control; (dose: 0.5 mg/kg/injection, schedule: Q01DX009 (ip), vehicle: saline) 130 % of control [7 of 10 alive]; (dose: 0.5 mg/kg/injection, schedule: Q01DX009 (ip), vehicle: steroid suspending solution) 141 % of control; (dose: 1.0 mg/kg/injection, schedule: Q01DX009 (ip), vehicle: Klucel (hydroxypropylcellulose) (HPC)) 132 % of control; (dose: 1000.0 micrograms/kg/injection, schedule: Q01DX009 (ip), vehicle: saline with Tween-80) 138 % of control. The survivor count (dose: 1.0 mg/kg/injection, schedule: Q01DX009 (ip), vehicle: saline) was 3 of 10 and 6 of 10; the survivor count (dose: 2.0 mg/kg/injection, schedule: Q01DX009 (ip), vehicle: steroid suspending solution) is 2 of 10.

For the compound `Cc1ccc2nc(-c3ccc(N=Cc4ccccc4O)cc3)sc2c1`, the survivor count (dose: 12.5 mg/kg/injection, schedule: Q01DX009 (ip), vehicle: olive oil, sesame oil, peanut oil) was 9 of 10 and 10 of 10; the survivor count (dose: 25.0 mg/kg/injection, schedule: Q01DX009 (ip), vehicle: olive oil, sesame oil, peanut oil) is given as 10 of 10; the survivor count (dose: 50.0 mg/kg/injection, schedule: Q01DX009 (ip), vehicle: olive oil, sesame oil, peanut oil) is reported as 9 of 10; the survivor count (dose: 100.0 mg/kg/injection, schedule: Q01DX009 (ip), vehicle: olive oil, sesame oil, peanut oil) was 10 of 10 (2×); the survivor count (dose: 200.0 mg/kg/injection, schedule: Q01DX009 (ip), vehicle: olive oil, sesame oil, peanut oil) is 10 of 10 (2×); the survivor count (dose: 400.0 mg/kg/injection, schedule: Q01DX009 (ip), vehicle: olive oil, sesame oil, peanut oil) was 9 of 10 and 10 of 10.

On to `Clc1ccc(CN2COc3c(ccc4cccnc34)C2)cc1Cl`, for which the survivor count (dose: 12.5 mg/kg/injection, schedule: Q01DX009 (ip), vehicle: saline with Tween-80) is given as 5 of 10; the survivor count (dose: 200.0 mg/kg/injection, schedule: Q01DX009 (ip), vehicle: saline with Tween-80) is 10 of 10; the survivor count (dose: 400.0 mg/kg/injection, schedule: Q01DX009 (ip), vehicle: saline with Tween-80) was 10 of 10.

Regarding `CC1CCC(=C(c2ccccc2)c2ccccc2)C(C)N1C` (centres undefined), the survivor count (dose: 100.0 mg/kg/injection, schedule: Q04DX003 (ip), vehicle: saline with Tween-80) is 6 of 10.

As to `Cc1cc2nc3ccc(=[N+](C)C)cc-3sc2cc1N`, for the setting “dose: 6.25 mg/kg/injection, schedule: Q01DX009 (ip), vehicle: saline”, the T/C was 125 % of control. The survivor count runs as follows: (dose: 100.0 mg/kg/injection, schedule: Q01DX009 (ip), vehicle: saline) 4 of 10; (dose: 200.0 mg/kg/injection, schedule: Q01DX009 (ip), vehicle: saline) 0 of 10; (dose: 400.0 mg/kg/injection, schedule: Q01DX009 (ip), vehicle: saline) 0 of 10.

As for `O=c1sc(N=Nc2ccccc2)nn1-c1ccccc1`, where the note is “dose: 400.0 mg/kg/injection, schedule: Q04DX003 (ip), vehicle: Klucel (hydroxypropylcellulose) (HPC)”, the survivor count is given as 6 of 10.
